Among the data in PMC12450706 are binding values, retold here.

By UniProt entry, the sequences of proteins in these tests, tags left out.
UniProt Q8R4B8: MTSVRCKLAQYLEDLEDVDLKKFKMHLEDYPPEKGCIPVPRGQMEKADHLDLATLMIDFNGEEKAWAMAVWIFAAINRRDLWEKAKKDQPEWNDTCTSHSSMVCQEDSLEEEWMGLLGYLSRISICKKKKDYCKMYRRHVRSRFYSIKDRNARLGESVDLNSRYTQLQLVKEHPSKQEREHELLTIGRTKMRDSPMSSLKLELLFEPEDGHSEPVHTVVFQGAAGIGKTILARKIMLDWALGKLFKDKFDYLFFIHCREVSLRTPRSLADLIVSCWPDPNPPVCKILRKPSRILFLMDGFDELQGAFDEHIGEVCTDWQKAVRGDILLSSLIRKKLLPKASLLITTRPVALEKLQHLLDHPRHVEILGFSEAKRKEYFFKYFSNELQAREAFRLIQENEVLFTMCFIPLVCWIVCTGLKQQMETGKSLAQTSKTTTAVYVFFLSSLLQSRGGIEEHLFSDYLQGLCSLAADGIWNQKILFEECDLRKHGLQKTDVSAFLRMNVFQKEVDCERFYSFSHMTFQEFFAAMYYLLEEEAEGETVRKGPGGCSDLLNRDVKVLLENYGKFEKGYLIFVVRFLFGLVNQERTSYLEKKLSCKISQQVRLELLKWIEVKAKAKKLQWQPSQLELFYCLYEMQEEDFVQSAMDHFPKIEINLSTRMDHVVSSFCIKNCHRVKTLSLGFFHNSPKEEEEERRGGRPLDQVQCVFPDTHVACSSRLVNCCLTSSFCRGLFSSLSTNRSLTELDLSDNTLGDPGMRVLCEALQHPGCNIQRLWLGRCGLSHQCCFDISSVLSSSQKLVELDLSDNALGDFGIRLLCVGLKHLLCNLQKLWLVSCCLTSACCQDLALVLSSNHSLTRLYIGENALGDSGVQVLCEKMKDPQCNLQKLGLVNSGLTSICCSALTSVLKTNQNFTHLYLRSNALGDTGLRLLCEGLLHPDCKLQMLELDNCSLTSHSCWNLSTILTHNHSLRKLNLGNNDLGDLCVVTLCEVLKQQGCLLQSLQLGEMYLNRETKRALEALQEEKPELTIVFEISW

Experiment [1] addresses NOD-like receptor family pyrin domain-containing 3 (NLRP3) (mouse (endogenous in primary microglia)) (UniProt Q8R4B8). Briefly: co-IP; primary microglia stimulated with 100 ng/ml LPS for 7.5 h and 5 mM ATP for 0.5 h; lysed in RIPA buffer (50 mM Tris-HCl pH 7.4, 150 mM NaCl, 1% NP-40); 500 ug protein with anti-DJ-1 or anti-NLRP3 antibody overnight at 4 C, Protein A/G agarose; blotted for the other protein.

The target is the same in experiment [2]. Briefly: proximity ligation; Duolink PLA in fixed, permeabilised microglial cells after inflammatory stimulation; rabbit anti-DJ-1 and mouse anti-NLRP3 primary antibodies; confocal microscopy.

No constants are given. Whether binding was seen depends on the method and setting. Binding seen in cells or lysates may run through a third protein. Some results given as binding are weak or reduced against the parent protein; the word gives no strength.

B1: DJ-1 (protein, UniProt Q99LX0 1-189)
chain: MASKRALVILAKGAEEMETVIPVDVMRRAGIKVTVAGLAGKDPVQCSRDVMICPDTSLEDAKTQGPYDVVVLPGGNLGAQNLSESPMVKEILKEQESRKGLIAAICAGPTALLAHEVGFGCKVTTHPLAKDKMMNGSHYSYSESRVEKDGLILTSRGPGTSFEFALAIVEALVGKDMANQVKAPLVLKD
Consider B1, for which the binding entry in experiment [1] and in experiment [2] was “binds” in each case.
